Experimental findings from article PMC7326067, “The Critical Role of Tryptophan in the Antimicrobial Activity and Cell Toxicity of the Duck Antimicrobial Peptide DCATH” (Frontiers in Microbiology, 2020) are described below.

The test system of the data set is bacterial cells over hRBCs. Particulars: TI = HC10/GM (ratio of MHC to GM).

Where no end group is shown, it is not given here.

Take KRFWQLVPLAIKIYRA-NH2 [dCATH(1–16)]: the “TI (therapeutic index)” value is 52.46.
With QLVPLAIKIYRAWKRR-NH2 [dCATH(5–20)] the figure was 39.02.
